Data on 27 compounds can be found in PubChem BioAssay AID206 (DTP/NCI, 2004).

SMILES strings stand for the structures. The list shows only some results of the screen, not a fair sample: it gathers tests that were run many times, whatever their T/C, doses with no T/C, and many T/C values between a quarter and a half above the control. Further doses and runs are listed elsewhere. T/C: endpoint of the treated group in % of that of the vehicle group. Schedule codes are those of the source, read here as Q, the interval in days (D) or hours (H), X, the number of doses. Some T/C values carry the count of animals alive at the toxicity check (mostly the fifth day); without a count, all were alive then. Some entries give survivors of the animals treated and no T/C: the source holds a T/C of zero for them, seemingly a mark for toxic or unscored doses. Survivors were counted at the toxicity check, usually on the fifth day, unless a day is given; later deaths do not show. Some entries hold several experiments; the results are listed from low to high.

The test relates to nude mice, HT29 intrarenal xenograft, tumor weight T/C. The test can be described thus: NCI In Vivo Anticancer Drug Screen. Data for tumor model HT29;CX-1 Human Adenocarcinoma (MER+) (intrarenal inoculation) in NU/NU Swiss (nude) mice. To be noted: T/C endpoint: mean tumor weight change, higher T/C = larger tumour. A digest of the protocol: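 Endpoint measured as tumor size or survival; ratio reported is treated group over vehicle controls.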

The mark [1] stands for this setting: dose: 25.0 mg/kg/injection, schedule: Q04DX004 (sc), vehicle: water.
Where [2] appears, read: dose: 400.0 mg/kg/injection, schedule: Q01DX010 (sc), vehicle: saline with Tween-80.
The mark [3] stands for this setting: dose: 100.0 mg/kg/injection, schedule: Q04DX004 (sc), vehicle: water.
Setting [4] is: dose: 100.0 mg/kg/injection, schedule: Q01DX010 (sc), vehicle: saline.

Take `CCC(=O)N(C)[C@@H](C)C(=O)O[C@H]1CC(=O)N(C)c2cc(cc(OC)c2Cl)C/C(C)=C/C=C[C@@H](OC)[C@@]2(O)C[C@H](OC(=O)N2)[C@@H](C)[C@@H]2O[C@@]12C`: under “dose: 0.5 mg/kg/injection, schedule: Q01DX010 (sc), vehicle: saline + alcohol”, the survivor count is 0 of 6 on day 11.
For the compound `O=C(O)C(CSC(c1ccccc1)(c1ccccc1)c1ccccc1)N=Cc1cccs1` (stereo unspecified), the survivor count runs as follows: (dose: 200.0 mg/kg/injection, schedule: Q04DX004 (sc), vehicle: suspension in saline) 2 of 5 on day 15; (dose: 800.0 mg/kg/injection, schedule: Q04DX004 (sc), vehicle: suspension in saline) 0 of 6 on day 15 and 2 of 6 on day 15.
As for `c1ccc([C@H]2CN3CCSC3=N2)cc1`, the T/C (dose: 60.0 mg/kg/injection, schedule: Q04DX004 (sc), vehicle: saline, evaluated on day 15) is 134 % of control [5 of 6 alive on day 15]. For the same compound, the survivor count (dose: 120.0 mg/kg/injection, schedule: Q04DX004 (sc), vehicle: saline) is on record as 0 of 6 on day 15.
`COC(=O)[C@@]12OC[C@]34[C@H]([C@@H](O)[C@@H]1O)[C@@]1(C)CC(=O)C(O)=C(C)[C@@H]1C[C@H]3OC(=O)[C@H](OC(=O)/C=C(\C)C(C)C)[C@@H]24`: the survivor count was 0 of 6 on day 15 (dose: 2.0 mg/kg/injection, schedule: Q04DX004 (sc), vehicle: saline with Tween-80) and 0 of 6 on day 15 (dose: 4.0 mg/kg/injection, schedule: Q04DX004 (sc), vehicle: saline with Tween-80).
Take `COc1ccc(-c2csc(=[N+]3CCCCC3)s2)cc1`: under “dose: 3.12 mg/kg/injection, schedule: Q04DX004 (sc), vehicle: water, evaluated on day 15”, the T/C was 148 % of control. Further, the survivor count under setting [1] was 1 of 6 on day 15.
For the compound `N[C@H](C(=O)O)[C@@H]1CC(Cl)=NO1`, the survivor count is reported as 1 of 3 on day 11 (dose: 16.0 mg/kg/injection, schedule: Q01DX010 (sc), vehicle: saline) and 1 of 3 on day 11 (dose: 32.0 mg/kg/injection, schedule: Q01DX010 (sc), vehicle: saline).
`O=C(N/N=C\c1cc(Br)cc(Br)c1O)N/N=C/c1cc(Br)cc(Br)c1O`: the T/C (dose: 50.0 mg/kg/injection, schedule: Q01DX010 (sc), vehicle: saline with Tween-80, evaluated on day 11) was 128 % of control.
Consider `S=C=NCCc1ccccc1`, for which the survivor count (dose: 200.0 mg/kg/injection, schedule: Q01DX010 (sc), vehicle: saline with Tween-80) was 0 of 6 on day 15; the survivor count under setting [2] was 0 of 6 on day 15 and 2 of 6 on day 15.
As for `Nc1nc2ccc(NCc3ccc(C(=O)NC(CCC(=O)O)C(=O)O)cc3)cc2c(=O)[nH]1` (stereo unspecified), the survivor count (dose: 800.0 mg/kg/injection, schedule: Q04DX004 (sc), vehicle: saline with Tween-80) was 0 of 6 on day 15.
Turning to `O=C(NO)c1ccc(O)c(O)c1`, the T/C (dose: 800.0 mg/kg/injection, schedule: Q04DX004 (sc), vehicle: water, evaluated on day 15) was 126 % of control. The survivor count (dose: 1600.0 mg/kg/injection, schedule: Q04DX004 (sc), vehicle: water) was 0 of 4 on day 15.
As for `CN1CCc2c(c3ccccc3c3ccccc23)C1`, for the setting “dose: 1200.0 mg/kg/injection, schedule: Q04DX004 (sc), vehicle: Klucel (hydroxypropylcellulose) (HPC)”, the survivor count is 3 of 5 on day 15.
As to `O=NN(CCCl)C(=O)NC1CCCCC1`, the T/C (dose: 12.5 mg/kg/injection, schedule: Q04DX004 (sc), vehicle: Klucel (hydroxypropylcellulose) (HPC), evaluated on day 15) was 126 % of control. The survivor count by setting is: (dose: 64.0 mg/kg/injection, schedule: Q01DX010 (sc), vehicle: saline with Tween-80) 0 of 3 on day 11; (dose: 100.0 mg/kg/injection, schedule: Q04DX004 (sc), vehicle: Klucel (hydroxypropylcellulose) (HPC)) 1 of 3 on day 15.
In the case of `CCCCCCCCCCC(OC(C)=O)C1CCC(C2CCC(C(O)CCCCCCCCCCCCC3C=C(C)OC3=O)O2)O1` (stereo unspecified), the survivor count under setting [3] was 1 of 5 on day 15 and the survivor count (dose: 200.0 mg/kg/injection, schedule: Q04DX004 (sc), vehicle: water) was 0 of 6 on day 15.
For `Cc1c2ccccc2cc2cccc[n+]12`, the survivor count (dose: 60.0 mg/kg/injection, schedule: Q04DX004 (sc), vehicle: saline) is recorded as 0 of 6 on day 15.
As for `CCC1CCCCN1C(=S)N/N=C(\C)c1ccccn1` (stereo unspecified), the survivor count (dose: 150.0 mg/kg/injection, schedule: Q04DX004 (sc), vehicle: saline with Tween-80) was 0 of 6 on day 15 and the survivor count (dose: 300.0 mg/kg/injection, schedule: Q04DX004 (sc), vehicle: saline with Tween-80) is listed as 0 of 6 on day 15.
Take `C[C@H](N)C(=O)N[C@@H]1[C@H]2C(=C(O)C[C@@H](O)[C@@H]2O)C(=O)O[C@]1(C)C(Cl)Cl`: the survivor count by setting is: (dose: 3.0 mg/kg/injection, schedule: Q04DX004 (sc), vehicle: Klucel (hydroxypropylcellulose) (HPC)) 3 of 6 on day 15; (dose: 6.0 mg/kg/injection, schedule: Q04DX004 (sc), vehicle: Klucel (hydroxypropylcellulose) (HPC)) 0 of 6 on day 15; (dose: 12.0 mg/kg/injection, schedule: Q04DX004 (sc), vehicle: Klucel (hydroxypropylcellulose) (HPC)) 0 of 6 on day 15.
Turning to `COc1cc2c(c(OC)c1OC)-c1ccc(OC)c(=O)cc1[C@@H](NC(=O)CCl)CC2`, the survivor count (dose: 5.0 mg/kg/injection, schedule: Q04DX004 (sc), vehicle: saline with Tween-80) is on record as 2 of 6 on day 15.
Take `COc1cccc2c1C(=O)c1c(O)c3c(c(O)c1C2=O)C[C@@](O)(/C(C)=N/NC(=O)c1ccccc1)C[C@@H]3OC1CC(N)C(O)C(C)O1` (stereo partly specified): the T/C (dose: 9.38 mg/kg/injection, schedule: Q04DX004 (sc), vehicle: water, evaluated on day 15) was 140 % of control. The survivor count (dose: 75.0 mg/kg/injection, schedule: Q04DX004 (sc), vehicle: water) was 2 of 6 on day 15.
Take `COc1cc([C@@H]2c3cc4c(c(O)c3C[C@H]3COC(=O)[C@@H]32)OCO4)cc(OC)c1O`: under “dose: 8.0 mg/kg/injection, schedule: Q01DX010 (sc), vehicle: saline”, the survivor count is recorded as 0 of 3 on day 11.
Take `C=C1C(=O)OCC2C(C(=O)O)=CC3C(C)C(C)=CC123` (stereo unspecified): the T/C is 147 % of control (dose: 3.13 mg/kg/injection, schedule: Q01DX010 (sc), vehicle: Klucel (hydroxypropylcellulose) (HPC), evaluated on day 11) and 127 % of control (dose: 6.25 mg/kg/injection, schedule: Q01DX010 (sc), vehicle: Klucel (hydroxypropylcellulose) (HPC), evaluated on day 11).
Consider `CC/C(=C(/CC)c1ccc(O)cc1)c1ccc(O)cc1`, for which the T/C (dose: 75.0 mg/kg/injection, schedule: Q04DX004 (sc), vehicle: saline with Tween-80, evaluated on day 15) is 130 % of control. Under “dose: 600.0 mg/kg/injection, schedule: Q04DX004 (sc), vehicle: saline with Tween-80”, the survivor count is recorded as 2 of 6 on day 15.
On to `O=c1[nH]c(=O)n(C2CC(O)C(CO)O2)cc1I` (stereo unspecified), for which the survivor count under setting [2] is 0 of 3 on day 11; the survivor count (dose: 800.0 mg/kg/injection, schedule: Q01DX010 (sc), vehicle: saline with Tween-80) was 0 of 3 on day 11; the survivor count (dose: 1600.0 mg/kg/injection, schedule: Q01DX010 (sc), vehicle: saline with Tween-80) was 0 of 3 on day 11.
For the compound `O=C(O)CC(NC(=O)CP(=O)(O)O)C(=O)O.[NH-]C1CCCCC1[NH-].[Pt+2]` (stereo unspecified), the survivor count (dose: 50.0 mg/kg/injection, schedule: Q04DX004 (sc), vehicle: dextrose) is given as 3 of 6 on day 15.
Consider `COc1cccc2c1C(=O)c1c(O)c3c(c(O)c1C2=O)C[C@H](O)C[C@@H]3OC1CC(N)C(O)C(C)O1` (stereo partly specified), for which the survivor count under setting [4] was 0 of 6 on day 20.
As for `COc1cc(C)c2c(c1C=O)Oc1c(c(C)c(O)c3c1C(O)OC3=O)OC2=O` (stereo unspecified), the survivor count is, setting by setting: under setting [4], 0 of 3 on day 11; (dose: 400.0 mg/kg/injection, schedule: Q01DX010 (sc), vehicle: saline) 0 of 3 on day 11.
For the compound `O=c1[nH]cc(F)c(=O)[nH]1`, the survivor count is, setting by setting: (dose: 40.0 mg/kg/injection, schedule: Q01DX010 (sc), vehicle: saline) 0 of 3 on day 11; (dose: 50.0 mg/kg/injection, schedule: Q01DX010 (sc), vehicle: saline) 0 of 3 on day 11; (dose: 80.0 mg/kg/injection, schedule: Q01DX010 (sc), vehicle: saline) 0 of 3 on day 11; (dose: 112.0 mg/kg/injection, schedule: Q04DX004 (ip), vehicle: saline) 1 of 6 on day 15.
Consider `O=NN(CCCl)C(=O)NCCO`, for which the survivor count is reported as 1 of 3 on day 15 under setting [1]; 0 of 3 on day 15 (dose: 50.0 mg/kg/injection, schedule: Q04DX004 (sc), vehicle: water); 0 of 3 on day 15 under setting [3].
